Paper PMC2760709
Results are given in words; binding and its absence hold for the method and conditions named.

By UniProt entry, the sequences of proteins in these tests, tags left out. Where a name states a change or a piece, a line headed by the entry shows the natural chain unless it says otherwise.
UniProt P26361: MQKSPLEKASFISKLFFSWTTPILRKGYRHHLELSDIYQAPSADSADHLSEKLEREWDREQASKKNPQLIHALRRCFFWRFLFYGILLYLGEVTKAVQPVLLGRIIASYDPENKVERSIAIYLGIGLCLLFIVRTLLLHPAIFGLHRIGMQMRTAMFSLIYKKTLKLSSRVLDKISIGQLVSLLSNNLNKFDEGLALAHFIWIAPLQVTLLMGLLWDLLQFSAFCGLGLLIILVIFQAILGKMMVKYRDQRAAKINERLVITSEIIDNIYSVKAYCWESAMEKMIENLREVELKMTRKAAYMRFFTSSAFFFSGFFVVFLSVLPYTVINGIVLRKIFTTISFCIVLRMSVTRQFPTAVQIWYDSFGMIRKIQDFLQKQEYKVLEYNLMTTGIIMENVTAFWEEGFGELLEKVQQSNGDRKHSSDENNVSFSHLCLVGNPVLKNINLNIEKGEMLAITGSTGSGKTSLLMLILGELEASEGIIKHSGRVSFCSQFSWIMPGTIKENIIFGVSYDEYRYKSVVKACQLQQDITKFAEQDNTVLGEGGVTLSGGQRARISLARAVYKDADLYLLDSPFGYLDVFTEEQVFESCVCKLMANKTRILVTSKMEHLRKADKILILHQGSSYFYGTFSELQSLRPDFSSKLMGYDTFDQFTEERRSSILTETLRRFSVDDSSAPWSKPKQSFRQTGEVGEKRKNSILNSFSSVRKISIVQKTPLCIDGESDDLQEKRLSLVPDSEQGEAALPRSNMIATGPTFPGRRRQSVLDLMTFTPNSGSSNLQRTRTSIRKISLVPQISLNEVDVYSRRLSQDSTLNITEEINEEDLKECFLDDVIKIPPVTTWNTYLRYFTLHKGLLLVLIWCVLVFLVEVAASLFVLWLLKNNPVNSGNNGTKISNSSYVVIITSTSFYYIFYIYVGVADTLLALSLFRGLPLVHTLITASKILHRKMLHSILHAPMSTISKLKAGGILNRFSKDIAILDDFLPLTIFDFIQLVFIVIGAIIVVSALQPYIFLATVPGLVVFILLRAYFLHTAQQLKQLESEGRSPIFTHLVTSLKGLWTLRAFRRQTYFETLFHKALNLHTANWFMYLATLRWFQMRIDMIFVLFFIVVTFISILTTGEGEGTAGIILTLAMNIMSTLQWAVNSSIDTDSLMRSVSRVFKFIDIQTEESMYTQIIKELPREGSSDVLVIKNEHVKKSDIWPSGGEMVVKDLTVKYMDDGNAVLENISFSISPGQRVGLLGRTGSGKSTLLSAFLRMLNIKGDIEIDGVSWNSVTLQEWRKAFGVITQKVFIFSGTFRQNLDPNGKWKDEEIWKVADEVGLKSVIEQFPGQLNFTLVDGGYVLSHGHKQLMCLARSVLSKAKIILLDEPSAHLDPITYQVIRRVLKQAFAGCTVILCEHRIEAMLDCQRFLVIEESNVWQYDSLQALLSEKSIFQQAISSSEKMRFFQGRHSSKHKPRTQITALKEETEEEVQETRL

Biological target: NBD1 domain of CFTR (mouse) (mouse) (UniProt P26361)
Assay: SPR; NBD1 amine-coupled on CM5 chip (Biacore 2000), analyte injected directly; 25°C, 30 µl/min; 50 mM Tris, 150 mM NaCl, 5 mM MgCl2 pH 7.6, 0.005% P20, 1 mM DTT, 0.1 µM CaCl2; simple two-component model; apparent Kd; both purified

binding: no binding (tested: 100 µg/ml)
B1: annexin-A1 (ANXA1), bovine (protein, UniProt P46193 1-346)
chain: MAMVSEFLKQAWFIENEEQEYIKTVKGSKGGPGSAVSPYPTFNPSSDVEALHKAITVKGVDEATIIEILTKRNNAQRQQIKAAYLQEKGKPLDEVLKKALLGHLEEVVLALLKTPAQFDAEELRAAMKGLGTDEDTLNEILASRTNREIREINRVYREELKRDLAKDIASDTSGDYEKALLSLAKGDRSEELAVNDDLADSDARALYEAGERRKGTDVNVFITILTTRSYPHLRRVFQKYSKYSKHDMNKVLDLELKGDIEKCLTVIVKCATSQPMFFAEKLHQAMKGIGTRHKTLIRIMVSRSEIDMNDIKACYQKLYGISLCQAILDETKGDYEKILVALCGRD
